Results are given in words; binding and its absence hold for the method and conditions named. Some entries that bind do so weakly or less than the wild type. Sequences can lack the tags named with a protein.
Target: T1, QN, N-terminal fragment of collagen ColQ containing the proline-rich motif (PRAD), with a flag epitope at the C-terminus (UniProt Q03637)
T1 sequence: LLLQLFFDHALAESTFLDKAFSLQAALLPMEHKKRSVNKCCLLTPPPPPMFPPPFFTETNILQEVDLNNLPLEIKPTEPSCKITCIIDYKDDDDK
Test: co-expression of AChET and QN in COS cells; sedimentation of secreted forms

Amino acid sequences for entries named in this document (tags omitted). A change or cut given only in a name is not applied to a line headed by its entry.
UniProt P07692: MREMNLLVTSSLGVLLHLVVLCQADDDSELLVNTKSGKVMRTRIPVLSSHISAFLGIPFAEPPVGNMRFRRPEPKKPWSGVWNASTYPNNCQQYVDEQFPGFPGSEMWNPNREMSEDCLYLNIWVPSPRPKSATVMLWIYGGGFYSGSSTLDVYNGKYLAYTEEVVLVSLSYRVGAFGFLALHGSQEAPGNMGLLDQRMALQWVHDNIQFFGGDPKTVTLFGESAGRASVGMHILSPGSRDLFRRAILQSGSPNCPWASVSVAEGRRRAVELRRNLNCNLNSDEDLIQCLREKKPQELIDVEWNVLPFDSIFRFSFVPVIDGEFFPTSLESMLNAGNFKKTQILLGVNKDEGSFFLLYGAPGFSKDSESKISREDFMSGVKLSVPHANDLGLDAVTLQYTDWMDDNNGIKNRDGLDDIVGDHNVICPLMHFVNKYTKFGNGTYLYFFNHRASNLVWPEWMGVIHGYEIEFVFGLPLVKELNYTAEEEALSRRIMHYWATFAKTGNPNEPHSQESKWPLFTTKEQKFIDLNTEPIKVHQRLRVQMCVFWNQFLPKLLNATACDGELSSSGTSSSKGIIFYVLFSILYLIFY

- binding: binds
Substance: wild type Torpedo AChET (from UniProt P07692 25-559) (enzyme)

Source: patent US20080241172A1
